In patent US9278121B2, “Methods of use for an antimicrobial peptide” (priority 2013, dated 2016):
In brackets after ≈: the same amount, converted by molar mass. At least one peptide structure holds a part that was inferred or is arguable (an end, a ring closure or a residue). Where a SMILES comes first, the peptide text is derived from it.

Columns and labels:
[1] = system: P. acnes; experiment: MIC test by microdilution assay against P. acnes; type: cell-based, Propionibacterium acnes
[2] = system: NF-κB p65; type: cell-based, human
[3] = system: intracellular calcium; type: cell-based, human
[4] = system: P. acnes; experiment: P. acnes-induced inflammatory response in ICR mouse ears; type: in vivo, ICR mice
Experimental: Right ears of ICR mice (Harlan, Indianapolis, Ind.) were intradermally injected with P. acnes (1×10^8 CFU per 20 μl in Phosphate-Buffered Saline (PBS)) with or without HPA3NT3 peptide (6.4 μM). Left ears of the same mice were injected with 20 μl of PBS. In negative control ICR mice, right ears remained untreated while left ears received intradermal injections of PBS. For histological observation, the cross-sectioned ear was stained with hematoxylin and eosin (Sigma) and viewed on a Zeiss Axioskop2 plus microscope (Carl Zeiss) 24 to 48 hours after injection. The increase in ear thickness was measured using a micro caliper (Mitutoyo 547-400S; MSI Viking Gage, Charleston, S.C.) prior to, and at 24, 48, and 72 hours post injection. The percent difference in ear thickness (right vs. left ear) was determined by an induced ear inflammation ratio (percent difference in the experimental ear divided by the percent difference in the control ears). Ten milligrams of tissue from an 8 mm biopsy that was punched from ears at 24 hours after P. acnes injection was homogenized in 250 μl of sterile PBS with a tissue grinder. CFUs of P. acnes were determined by plating serial dilutions of the homogenate on an agar plate under anaerobic conditions for 48 hours.

[5] = system: TLR4; type: cell-based, human
[6] = system: IL-8; experiment: IL-8 mRNA in P. aeruginosa-infected human corneal epithelial cells; type: cell-based; conditions: HCET cells
Experimental: Human corneal epithelial cells (HCET cells) were exposed to 2×10^4 CFU/mL tympanitis-derived P. aeruginosa either in the presence or absence of antimicrobial peptides. Specifically, HP(2-20) and its derivatives HPA3NT3, ISFGW, and F1AF8A were added to samples at concentration of 3.2 μM. Moreover, a cathilocidin-derived peptide (P5) was also added to some conditions at a concentration of 1.6 μM.

[7] = system: IL-8; experiment: IL-8 mRNA and protein in M. furfur-infected HK cells; type: cell-based, human; conditions: 0.2 μM
[8] = system: NF-κB p65; type: cell-based, human; remark: listed apart in the source
[9] = system: intracellular calcium; type: cell-based, human; remark: listed apart in the source
[10] = system: TLR2; experiment: TLR2 mRNA and protein in M. furfur-infected HK cells; type: cell-based, human; conditions: 0.2 μM
[11] = system: M. furfur; experiment: MIC microdilution assay against M. furfur
[12] = system: IL-8; experiment: IL-8 mRNA (real-time RT-PCR) and protein (ELISA) in P. acnes-infected HK cells
[13] = system: TLR2; experiment: TLR2 mRNA (RT-PCR) and protein (immunofluorescence) in P. acnes-infected HK cells
[14] = ICR mice, intradermal injection, 6.4 μM

CC[C@H](C)[C@H](NC(=O)[C@H](CCCCN)NC(=O)[C@H](CCCCN)NC(=O)[C@H](Cc1ccccc1)NC(=O)[C@H](CC(C)C)NC(=O)[C@H](CCCCN)NC(=O)[C@H](CCCCN)NC(=O)[C@H](CC(C)C)NC(=O)[C@H](CCCNC(=N)N)NC(=O)[C@H](CCCCN)NC(=O)[C@@H](N)Cc1ccccc1)C(=O)N[C@@H](Cc1c[nH]c2ccccc12)C(=O)N[C@@H](CC(N)=O)C(=O)N[C@@H](Cc1c[nH]c2ccccc12)C(=O)N[C@@H](CCCCN)C(=O)O [HPA3NT3] (H-FKRLKKLFKKIWNWK-OH)
MIC against P. acnes, times lower than the HPN3 peptide negative control [1]: 32 times
MIC value against P. acnes ([1]; text summary of Table 1A, strain not named): 0.4 µM (≈ 0.825 µg/mL)
MIC against P. acnes, times lower than that of benzoyl peroxide ([1]; versus benzoyl peroxide (62.5 μM)): 156 times
P. acnes-induced NF-κB p65 nuclear translocation [2]: effective blocking
P. acnes-infection induced intracellular calcium fluctuation [3]: abrogated
P. acnes-induced mouse ear swelling and inflammatory infiltrate (histology) ([4]; 24 hours after bacterial injection): significantly reduced
reduction of ear swelling compared with clindamycin ([4]; ICR mice, P. acnes-infected ears): more efficient at reducing ear swelling
cutaneous erythema of P. acnes-infected ears [4, 14]: significantly reduced
ear swelling of P. acnes-infected ears [4, 14]: significantly reduced
number of P. acnes colonized within the ear tissue [4, 14]: significantly reduced
TLR4 mRNA increase in P. aeruginosa-infected HCET cells [5]: approximately 5 fold
P. aeruginosa infection induced IL-8 expression (mRNA) ([6]; 3.2 μM, 24 hours): significantly inhibited
expression of IL-8, peptide without P. aeruginosa ([6]; data not shown): did not impact the expression of IL-8
M. furfur-infection induced increase in IL-8 mRNA ([7]; 27:1 yeast to HK cell, 8 hours): significantly reduced
M. furfur-infection induced IL-8 protein in cell supernatant ([7]; ELISA, 24 hours): reduction
M. furfur-induced NF-κB p65 nuclear translocation [8]: effective blocking
M. furfur-infection induced intracellular calcium fluctuation [9]: abrogated
intracellular calcium fluctuation, peptide alone [9]: little intracellular calcium fluctuation
M. furfur-induced increase in TLR2 mRNA ([10]; 27:1, 8 hours): down-regulated
M. furfur-induced cellular expression of TLR2 protein ([10]; immunofluorescence): effectively inhibited
MIC against M. furfur [11]: < 0.09 µM
secretion of IL-8 protein, peptide alone [12]: no significantly increased secretion
down-regulation of P. acnes-induced IL-8 mRNA ([12]; HK cells, 3.2 μM peptide, 24 hours): > 85%
reduction of P. acnes-infection induced IL-8 protein secretion (inhibition rate) ([12]; HK cells, ELISA, 24 hours after treatment): > 55%
TLR2 protein levels, peptide alone [13]: did not impact TLR2 protein levels
P. acnes-induced increase in TLR2 mRNA ([13]; HK cells, 24 hours): significantly downregulated
P. acnes-induced cellular expression of TLR2 protein ([13]; HK cells, immunofluorescence): effectively inhibited
